# Reference: the supplement of paper PMC4604168 (melanoma cell lines)
# The list shows a part of the results. Single values are uncertain, as repeats are few or missing.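 Cells were imaged in 1,536-well plates, and nuclei stained with an antibody against cleaved PARP were counted against all DNA-stained nuclei to give the apoptosis fraction. Screening doses were chosen to leave most cells alive, and resting and induced cleaved-PARP levels differ strongly between cell lines.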
# How the values were obtained:
# Experiment in all cases: cleaved PARP positive nuclei fraction relative to DMSO control; melanoma cells; higher = more apoptosis
# Details in all cases: library dose: low library concentration; 72 h
# 501Mel = test system: 501Mel
# A101D = test system: A101D
# A2058 = test system: A2058
# C32 = test system: C32
# CBRC008 = test system: CBRC008 (line from a melanoma biopsy)
# CBRC014 = test system: CBRC014 (line from a melanoma biopsy)
# CBRC016 = test system: CBRC016 (line from a melanoma biopsy)
# CBRC017 = test system: CBRC017 (line from a melanoma biopsy)
# COLO792 = test system: COLO792
# COLO800 = test system: COLO800
# COLO829 = test system: COLO829
# G361 = test system: G361
# IPC-298 = test system: IPC-298
# IST-MEL1 = test system: IST-MEL1
# LB2518-MEL = test system: LB2518-MEL
# LOXIMVI = test system: LOXIMVI
Structure (SMILES),cleaved PARP positive nuclei fraction (501Mel),cleaved PARP positive nuclei fraction (A101D),cleaved PARP positive nuclei fraction (A2058),cleaved PARP positive nuclei fraction (C32),cleaved PARP positive nuclei fraction (CBRC008),cleaved PARP positive nuclei fraction (CBRC014),cleaved PARP positive nuclei fraction (CBRC016),cleaved PARP positive nuclei fraction (CBRC017),cleaved PARP positive nuclei fraction (COLO792),cleaved PARP positive nuclei fraction (COLO800),cleaved PARP positive nuclei fraction (COLO829),cleaved PARP positive nuclei fraction (G361),cleaved PARP positive nuclei fraction (IPC-298),cleaved PARP positive nuclei fraction (IST-MEL1),cleaved PARP positive nuclei fraction (LB2518-MEL),cleaved PARP positive nuclei fraction (LOXIMVI)
"Clc1ccc(Nc2nnc(Cc3ccncc3)c3ccccc23)cc1 [vatalanib] + CCc1ccc(CCOc2ccc(CC3SC(=O)NC3=O)cc2)nc1 [pioglitazone] (first compound 2 µM, partner dose 2 µM)",65.4%,44%,31.6%,260%,129%,170%,34.9%,169%,60.5%,87.4%,102%,139%,106%,82.5%,73.8%,164%
"C=CCNC1=C2C[C@@H](C)C[C@H](OC)[C@H](O)[C@@H](C)/C=C(\C)[C@H](OC(N)=O)[C@@H](OC)/C=C\C=C(/C)C(=O)NC(=CC1=O)C2=O [Tanespimycin] + CCN(CC)CCCCNc1ncc2cc(-c3cc(OC)cc(OC)c3)c(NC(=O)NC(C)(C)C)nc2n1 [PD173074] (first compound 0.002 µM, partner dose 0.1 µM)",65.4%,23.8%,87.1%,51.6%,34.1%,102%,72.5%,66%,14.8%,88.1%,68%,89.6%,92.2%,124%,73.1%,71.7%
"CC(=O)c1c(C)c2cnc(Nc3ccc(N4CCNCC4)cn3)nc2n(C2CCCC2)c1=O [palbociclib] + COc1cc2ncnc(Nc3ccc(Oc4ccccc4)cc3)c2cc1OC [SrcI1] (first compound 0.04 µM, partner dose 2 µM)",135%,38.1%,95.8%,50.1%,56%,107%,55.2%,87%,210%,85%,184%,31.3%,58.6%,63.2%,70.3%,265%
"OCc1c[nH]c2ccccc12 [Indole-3-carbinol] + Cn1cc(/C=C2\C(=O)Nc3cccnc32)c2ccccc21 [GW441756] (first compound 0.8 µM, partner dose 0.4 µM)",52.7%,55.4%,72.7%,86%,28.9%,83%,65.7%,88.1%,115%,105%,88.4%,97.4%,46%,109%,73.9%,66.9%
"Clc1ccc(Nc2nnc(Cc3ccncc3)c3ccccc23)cc1 [vatalanib] + COc1ccc(-c2ccc3c(N4CCOCC4)nc(N4C[C@@H](C)O[C@@H](C)C4)nc3n2)cc1CO [KU0063794] (first compound 2 µM, partner dose 0.02 µM)",41.4%,167%,61.8%,124%,79.5%,102%,22.6%,89.1%,124%,105%,68.4%,107%,55.8%,102%,20%,77.4%
"OCc1c[nH]c2ccccc12 [Indole-3-carbinol] + CC(C)CCN1c2nc(Nc3cc(F)c(O)c(F)c3)ncc2N(C)C(=O)C1C [BID1870] (first compound 0.8 µM, partner dose 0.2 µM)",76.4%,26%,191%,102%,71.7%,89.4%,78.6%,151%,92.5%,101%,121%,120%,100%,34.9%,79.2%,56.8%
"CC(=O)c1c(C)c2cnc(Nc3ccc(N4CCNCC4)cn3)nc2n(C2CCCC2)c1=O [palbociclib] + COC(=O)c1sccc1S(=O)(=O)Nc1ccc(Nc2ccccc2)cc1OC [GSK0660] (first compound 0.04 µM, partner dose 1 µM)",357%,40.2%,36.9%,50.2%,42.1%,287%,38.3%,218%,117%,205%,20.9%,46.7%,224%,41.1%,46.9%,119%
"C=CCNC1=C2C[C@@H](C)C[C@H](OC)[C@H](O)[C@@H](C)/C=C(\C)[C@H](OC(N)=O)[C@@H](OC)/C=C\C=C(/C)C(=O)NC(=CC1=O)C2=O [Tanespimycin] + c1cc(-c2cnn3cc(-c4ccc(OCCN5CCCCC5)cc4)cnc23)ccn1 [Dorsomorphin] (first compound 0.002 µM, partner dose 0.4 µM)",32.9%,19.6%,51%,50.2%,53.2%,109%,31.5%,80.1%,25.4%,113%,109%,121%,61.7%,95.7%,96.4%,99.4%
"Clc1ccc(Nc2nnc(Cc3ccncc3)c3ccccc23)cc1 [vatalanib] + c1cc(-c2cnn3cc(-c4ccc(OCCN5CCCCC5)cc4)cnc23)ccn1 [Dorsomorphin] (first compound 2 µM, partner dose 0.4 µM)",37.6%,68.7%,126%,74.4%,22.2%,157%,87.6%,98.4%,99.7%,91.3%,113%,144%,84.8%,44.9%,84.3%,34.4%
"OCc1c[nH]c2ccccc12 [Indole-3-carbinol] + COC(=O)c1sccc1S(=O)(=O)Nc1ccc(Nc2ccccc2)cc1OC [GSK0660] (first compound 0.8 µM, partner dose 1 µM)",51.8%,19.1%,63.8%,96.2%,33.1%,81.9%,48.6%,84.8%,69%,215%,60.1%,51%,57.9%,180%,78%,35.6%
"C=CCNC1=C2C[C@@H](C)C[C@H](OC)[C@H](O)[C@@H](C)/C=C(\C)[C@H](OC(N)=O)[C@@H](OC)/C=C\C=C(/C)C(=O)NC(=CC1=O)C2=O [Tanespimycin] + O=C(Nc1ccccc1)c1cc([N+](=O)[O-])ccc1Cl [GW9662] (first compound 0.002 µM, partner dose 2 µM)",57.4%,39.1%,87.7%,29.9%,313%,110%,26.7%,96.1%,50.2%,70.1%,109%,83.6%,95.7%,127%,67%,85.3%
"OCc1c[nH]c2ccccc12 [Indole-3-carbinol] + O=C(O)C(=O)Nc1sc2c(c1C(=O)O)CCNC2 [TCS401] (first compound 0.8 µM, partner dose 1.66667 µM)",145%,60.3%,23.3%,35.3%,46.9%,75.8%,86.8%,186%,31.1%,73.4%,104%,63.1%,47.7%,92.4%,75.3%,46.8%
"CC(=O)c1c(C)c2cnc(Nc3ccc(N4CCNCC4)cn3)nc2n(C2CCCC2)c1=O [palbociclib] + Cc1cc([N+](=O)[O-])ccc1NS(=O)(=O)c1cc(Cl)ccc1Cl [FH535] (first compound 0.04 µM, partner dose 1 µM)",223%,34.4%,105%,54.8%,245%,303%,652%,355%,95.5%,135%,66.6%,110%,90.6%,119%,95.3%,63.5%
"CC(=O)c1c(C)c2cnc(Nc3ccc(N4CCNCC4)cn3)nc2n(C2CCCC2)c1=O [palbociclib] + O=C(O)C(=O)Nc1sc2c(c1C(=O)O)CCNC2 [TCS401] (first compound 0.04 µM, partner dose 1.66667 µM)",113%,14%,107%,110%,55.2%,97.6%,103%,92.6%,99.3%,159%,52.7%,192%,214%,121%,95.7%,154%
"CC(=O)c1c(C)c2cnc(Nc3ccc(N4CCNCC4)cn3)nc2n(C2CCCC2)c1=O [palbociclib] + CC(C)CCN1c2nc(Nc3cc(F)c(O)c(F)c3)ncc2N(C)C(=O)C1C [BID1870] (first compound 0.04 µM, partner dose 0.2 µM)",103%,12.9%,91.8%,154%,565%,247%,56.2%,81.1%,262%,58.1%,60.3%,63.9%,104%,95.2%,46.1%,68.9%
"Clc1ccc(Nc2nnc(Cc3ccncc3)c3ccccc23)cc1 [vatalanib] + O=S(=O)(c1ccccc1)N(CC(F)(F)F)c1ccc(C(O)(C(F)(F)F)C(F)(F)F)cc1 [T0901317] (first compound 2 µM, partner dose 1.4 µM)",162%,73.4%,82.8%,137%,438%,122%,94.2%,87.8%,82.7%,72.2%,129%,78.5%,47.1%,129%,83.6%,57.2%
"C=CCNC1=C2C[C@@H](C)C[C@H](OC)[C@H](O)[C@@H](C)/C=C(\C)[C@H](OC(N)=O)[C@@H](OC)/C=C\C=C(/C)C(=O)NC(=CC1=O)C2=O [Tanespimycin] + O=c1cc(-c2cccc3c2Sc2ccccc2S3)oc(N2CCOCC2)c1 [KU55933] (first compound 0.002 µM, partner dose 1 µM)",57.7%,14.7%,62.7%,126%,248%,130%,77.8%,177%,29.2%,152%,76.4%,173%,52.1%,213%,58.4%,151%
"CC(=O)c1c(C)c2cnc(Nc3ccc(N4CCNCC4)cn3)nc2n(C2CCCC2)c1=O [palbociclib] + COc1ccc(-c2ccc3c(N4CCOCC4)nc(N4C[C@@H](C)O[C@@H](C)C4)nc3n2)cc1CO [KU0063794] (first compound 0.04 µM, partner dose 0.02 µM)",332%,32.5%,138%,210%,63.5%,101%,124%,76.4%,109%,41.4%,90%,127%,54.5%,131%,39.5%,42.1%
"CC(=O)c1c(C)c2cnc(Nc3ccc(N4CCNCC4)cn3)nc2n(C2CCCC2)c1=O [palbociclib] + CCCCCCCCCCCC1=C(O)C(=O)C=C(O)C1=O [Embelin] (first compound 0.04 µM, partner dose 1.2 µM)",232%,43%,24.9%,145%,63.7%,127%,44.6%,140%,35.1%,56.2%,53.4%,29.2%,150%,101%,111%,83.1%

# Retrieved one by one from the entries so far (two):
Structure (SMILES),cleaved PARP positive nuclei fraction (501Mel),cleaved PARP positive nuclei fraction (A101D),cleaved PARP positive nuclei fraction (A2058),cleaved PARP positive nuclei fraction (C32),cleaved PARP positive nuclei fraction (CBRC008),cleaved PARP positive nuclei fraction (CBRC014),cleaved PARP positive nuclei fraction (CBRC016),cleaved PARP positive nuclei fraction (CBRC017),cleaved PARP positive nuclei fraction (COLO792),cleaved PARP positive nuclei fraction (COLO800),cleaved PARP positive nuclei fraction (COLO829),cleaved PARP positive nuclei fraction (G361),cleaved PARP positive nuclei fraction (IPC-298),cleaved PARP positive nuclei fraction (IST-MEL1),cleaved PARP positive nuclei fraction (LB2518-MEL),cleaved PARP positive nuclei fraction (LOXIMVI)
"CC(=O)c1c(C)c2cnc(Nc3ccc(N4CCNCC4)cn3)nc2n(C2CCCC2)c1=O [palbociclib] + COc1cc2ncnc(Nc3ccc(Oc4ccccc4)cc3)c2cc1OC [SrcI1] (first compound 0.04 µM, partner dose 2 µM)",135%,38.1%,95.8%,50.1%,56%,107%,55.2%,87%,210%,85%,184%,31.3%,58.6%,63.2%,70.3%,265%
"CC(=O)c1c(C)c2cnc(Nc3ccc(N4CCNCC4)cn3)nc2n(C2CCCC2)c1=O [palbociclib] + O=C(O)C(=O)Nc1sc2c(c1C(=O)O)CCNC2 [TCS401] (first compound 0.04 µM, partner dose 1.66667 µM)",113%,14%,107%,110%,55.2%,97.6%,103%,92.6%,99.3%,159%,52.7%,192%,214%,121%,95.7%,154%
